Here are results for four compounds from patent US20230027026A1, “FUSED PYRIMIDINE COMPOUNDS, COMPOSITIONS AND MEDICINAL APPLICATIONS THEREOF” (JUBILANT BIOSYS LIMITED, priority 2019, published 2023).

Protein sequences, listed by entry. Tags and fused reporters are not part of them. Chains listed by the source or under a name are the forms on record and can include a tag or linker. Residues count along the entry.
UniProt P00533, with tags, fused parts or gaps DUP767-769: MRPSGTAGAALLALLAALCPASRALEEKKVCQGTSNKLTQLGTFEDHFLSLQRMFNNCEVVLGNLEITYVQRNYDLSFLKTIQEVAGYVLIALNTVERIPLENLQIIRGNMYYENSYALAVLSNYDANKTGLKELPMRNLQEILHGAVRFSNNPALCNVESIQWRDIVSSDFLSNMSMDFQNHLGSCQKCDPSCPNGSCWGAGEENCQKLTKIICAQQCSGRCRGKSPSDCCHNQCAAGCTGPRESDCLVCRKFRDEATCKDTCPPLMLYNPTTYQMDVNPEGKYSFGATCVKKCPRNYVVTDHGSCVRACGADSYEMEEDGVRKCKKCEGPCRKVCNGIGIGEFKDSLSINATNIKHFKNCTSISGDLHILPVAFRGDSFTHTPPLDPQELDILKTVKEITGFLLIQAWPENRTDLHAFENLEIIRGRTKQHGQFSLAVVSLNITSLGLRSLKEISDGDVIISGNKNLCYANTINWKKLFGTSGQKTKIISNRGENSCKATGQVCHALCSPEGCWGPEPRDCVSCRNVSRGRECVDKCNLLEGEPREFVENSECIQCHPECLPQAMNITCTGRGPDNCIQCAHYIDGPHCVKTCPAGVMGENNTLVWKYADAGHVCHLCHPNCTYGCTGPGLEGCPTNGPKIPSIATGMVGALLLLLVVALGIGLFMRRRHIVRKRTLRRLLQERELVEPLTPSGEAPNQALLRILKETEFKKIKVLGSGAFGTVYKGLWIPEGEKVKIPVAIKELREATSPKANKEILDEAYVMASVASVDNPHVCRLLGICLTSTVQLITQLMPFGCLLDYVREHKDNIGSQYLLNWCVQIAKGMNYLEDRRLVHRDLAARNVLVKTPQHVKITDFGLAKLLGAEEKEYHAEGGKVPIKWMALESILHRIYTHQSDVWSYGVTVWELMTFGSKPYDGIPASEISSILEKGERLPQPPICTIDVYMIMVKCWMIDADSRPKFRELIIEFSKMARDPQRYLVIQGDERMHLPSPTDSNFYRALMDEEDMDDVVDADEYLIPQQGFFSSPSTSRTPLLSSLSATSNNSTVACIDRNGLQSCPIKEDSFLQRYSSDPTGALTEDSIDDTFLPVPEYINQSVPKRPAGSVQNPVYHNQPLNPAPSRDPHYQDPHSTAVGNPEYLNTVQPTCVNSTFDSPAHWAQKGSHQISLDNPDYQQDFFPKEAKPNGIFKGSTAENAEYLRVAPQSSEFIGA
UniProt P00533, with tags, fused parts or gaps DUP768-770: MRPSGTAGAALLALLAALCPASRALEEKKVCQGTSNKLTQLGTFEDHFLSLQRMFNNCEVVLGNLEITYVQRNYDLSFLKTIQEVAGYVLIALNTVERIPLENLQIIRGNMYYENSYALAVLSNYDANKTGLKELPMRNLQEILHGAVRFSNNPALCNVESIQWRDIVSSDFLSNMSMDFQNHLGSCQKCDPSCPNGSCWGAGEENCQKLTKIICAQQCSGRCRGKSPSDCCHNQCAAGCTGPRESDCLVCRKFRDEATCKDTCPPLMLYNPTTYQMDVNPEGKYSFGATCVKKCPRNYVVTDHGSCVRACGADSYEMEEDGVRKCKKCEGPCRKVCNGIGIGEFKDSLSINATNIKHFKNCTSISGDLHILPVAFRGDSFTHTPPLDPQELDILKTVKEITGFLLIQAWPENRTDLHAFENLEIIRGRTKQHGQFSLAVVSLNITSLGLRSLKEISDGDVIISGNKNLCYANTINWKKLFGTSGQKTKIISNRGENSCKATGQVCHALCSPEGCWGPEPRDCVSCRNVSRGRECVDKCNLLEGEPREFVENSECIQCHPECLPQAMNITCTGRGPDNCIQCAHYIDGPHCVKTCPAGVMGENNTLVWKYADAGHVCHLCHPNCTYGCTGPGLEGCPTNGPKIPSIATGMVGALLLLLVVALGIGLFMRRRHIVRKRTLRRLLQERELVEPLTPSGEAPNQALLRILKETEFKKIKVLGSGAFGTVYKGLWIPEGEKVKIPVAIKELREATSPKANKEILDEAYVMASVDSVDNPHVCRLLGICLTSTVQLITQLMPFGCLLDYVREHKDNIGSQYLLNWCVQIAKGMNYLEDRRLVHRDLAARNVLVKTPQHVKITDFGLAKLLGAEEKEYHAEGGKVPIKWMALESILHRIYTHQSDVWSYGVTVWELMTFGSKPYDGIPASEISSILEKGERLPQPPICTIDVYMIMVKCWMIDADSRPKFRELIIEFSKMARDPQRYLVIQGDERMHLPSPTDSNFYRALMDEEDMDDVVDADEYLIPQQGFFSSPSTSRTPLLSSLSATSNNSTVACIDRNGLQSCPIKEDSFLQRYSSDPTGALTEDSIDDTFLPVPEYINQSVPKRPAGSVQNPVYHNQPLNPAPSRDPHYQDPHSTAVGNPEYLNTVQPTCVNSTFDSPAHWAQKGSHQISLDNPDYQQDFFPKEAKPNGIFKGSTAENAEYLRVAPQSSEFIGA
UniProt P00533, 25-1210 T790M/L858R limits assumed: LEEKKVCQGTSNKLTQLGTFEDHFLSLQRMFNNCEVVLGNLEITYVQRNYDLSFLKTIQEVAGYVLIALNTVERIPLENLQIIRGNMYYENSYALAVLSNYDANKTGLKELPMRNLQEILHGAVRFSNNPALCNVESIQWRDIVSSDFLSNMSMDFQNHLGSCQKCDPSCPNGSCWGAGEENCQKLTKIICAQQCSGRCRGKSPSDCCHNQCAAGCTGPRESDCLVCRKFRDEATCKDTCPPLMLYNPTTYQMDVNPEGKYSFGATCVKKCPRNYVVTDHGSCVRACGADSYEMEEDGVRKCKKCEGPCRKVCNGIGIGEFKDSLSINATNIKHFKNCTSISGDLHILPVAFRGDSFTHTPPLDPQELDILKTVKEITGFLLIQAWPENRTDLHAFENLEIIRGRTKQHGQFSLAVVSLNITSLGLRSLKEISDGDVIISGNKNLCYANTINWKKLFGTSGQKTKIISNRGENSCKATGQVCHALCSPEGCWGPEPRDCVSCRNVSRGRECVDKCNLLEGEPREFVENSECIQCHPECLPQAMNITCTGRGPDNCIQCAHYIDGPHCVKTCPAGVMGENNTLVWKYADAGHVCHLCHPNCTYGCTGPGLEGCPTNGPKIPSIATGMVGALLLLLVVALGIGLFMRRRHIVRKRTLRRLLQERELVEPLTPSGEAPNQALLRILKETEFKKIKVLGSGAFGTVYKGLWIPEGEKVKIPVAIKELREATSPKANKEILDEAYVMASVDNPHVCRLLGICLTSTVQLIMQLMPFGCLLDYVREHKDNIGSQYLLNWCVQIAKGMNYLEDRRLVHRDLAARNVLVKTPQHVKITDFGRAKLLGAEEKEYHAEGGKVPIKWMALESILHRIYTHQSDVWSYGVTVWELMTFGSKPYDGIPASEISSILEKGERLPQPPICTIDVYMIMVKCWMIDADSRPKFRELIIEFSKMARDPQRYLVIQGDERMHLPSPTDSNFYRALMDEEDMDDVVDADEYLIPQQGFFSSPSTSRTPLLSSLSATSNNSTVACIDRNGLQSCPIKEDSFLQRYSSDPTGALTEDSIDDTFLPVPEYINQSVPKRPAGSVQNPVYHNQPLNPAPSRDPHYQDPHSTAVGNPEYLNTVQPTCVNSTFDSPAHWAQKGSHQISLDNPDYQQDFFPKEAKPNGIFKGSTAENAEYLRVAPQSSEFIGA
UniProt P04626, with tags, fused parts or gaps DUP772-775: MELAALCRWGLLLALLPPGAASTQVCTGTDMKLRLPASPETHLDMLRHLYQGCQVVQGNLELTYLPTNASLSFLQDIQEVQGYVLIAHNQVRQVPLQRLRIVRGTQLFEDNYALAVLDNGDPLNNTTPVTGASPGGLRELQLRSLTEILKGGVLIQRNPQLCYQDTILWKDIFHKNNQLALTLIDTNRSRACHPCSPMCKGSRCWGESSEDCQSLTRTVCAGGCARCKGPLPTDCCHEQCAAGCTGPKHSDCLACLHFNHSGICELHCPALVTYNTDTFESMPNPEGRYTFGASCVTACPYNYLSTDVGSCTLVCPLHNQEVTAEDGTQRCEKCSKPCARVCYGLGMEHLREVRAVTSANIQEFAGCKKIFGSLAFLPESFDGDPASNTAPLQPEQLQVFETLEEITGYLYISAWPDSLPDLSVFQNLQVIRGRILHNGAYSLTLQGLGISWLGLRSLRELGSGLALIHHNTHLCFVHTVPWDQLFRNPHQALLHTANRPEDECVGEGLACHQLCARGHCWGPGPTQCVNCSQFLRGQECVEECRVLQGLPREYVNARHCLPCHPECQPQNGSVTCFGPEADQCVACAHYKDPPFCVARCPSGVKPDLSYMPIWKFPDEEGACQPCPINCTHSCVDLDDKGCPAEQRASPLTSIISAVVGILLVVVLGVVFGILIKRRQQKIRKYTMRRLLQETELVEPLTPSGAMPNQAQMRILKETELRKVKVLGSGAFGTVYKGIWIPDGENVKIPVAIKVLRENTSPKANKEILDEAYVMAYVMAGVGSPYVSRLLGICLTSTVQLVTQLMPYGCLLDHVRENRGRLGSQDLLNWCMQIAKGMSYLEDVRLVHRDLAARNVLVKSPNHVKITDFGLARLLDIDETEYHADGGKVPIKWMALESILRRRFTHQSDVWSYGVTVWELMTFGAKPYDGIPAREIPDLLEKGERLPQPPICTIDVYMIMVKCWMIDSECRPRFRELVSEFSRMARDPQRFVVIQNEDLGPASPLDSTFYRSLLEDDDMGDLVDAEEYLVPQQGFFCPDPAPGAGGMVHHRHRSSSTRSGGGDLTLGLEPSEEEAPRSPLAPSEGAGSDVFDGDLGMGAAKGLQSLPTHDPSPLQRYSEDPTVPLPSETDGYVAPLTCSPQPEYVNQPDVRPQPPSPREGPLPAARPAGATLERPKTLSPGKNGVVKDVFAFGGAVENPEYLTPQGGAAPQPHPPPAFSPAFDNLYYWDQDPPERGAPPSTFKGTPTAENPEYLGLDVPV

In one assay the test system is A431 cells. Kind of assay: Cellular proliferation (Alamar Blue) assay, A431. The conditions noted are these: read-out: A431 IC50, 72 hr. The protocol: (§1) Example 3: Cellular Proliferation (Alamar Blue) Assays
(§2) • 1. EGFR(D770_N771insSVD) expressing Ba/F3 stable cell line • 2. EGFR (A767_dupASV) expressing Ba/F3 stable cell line • 3. A431 cells • 4. BTER2 (A775_G776insYVMA) expressing Ba/F3 stable cell line • 5. BTER2 (WT) expressing Ba/F3 stable cell line • 6. BT-474 cells
(§3) • 1. Seed cells at 5000 for A431 and 15,000 cells for Ba/F3 in 100 μL/well in complete media (for A431: DMEM with 10% FBS and for Ba/F3 cells: RPMI with 10% FBS) in 96-well tissue culture plate. Leave outer wells without cells for background measurements. Incubate at 37 degree Celsius in 5% CO2 humidified incubator for 16-18 hours. • 2. Add 0.025 ml of 5× concentration compound dilution or DMSO control. Final compound concentration range is 10-0.0005 μM prepared in 3-fold serial dilutions. Incubate for 72 hr at 37 degree Celsius in […] humidified incubator. • 3. Add 0.0125 mL Alamar Blue™ reagent to each well with multi-channel pipette and tap gently on each side of the plate to mix. Incubate for 3 hours at 37 degree Celsius in […] humidified incubator. • 4. Read plates on fluorescence reader (Tecan Spark Control, Device: Spark, Serial #: 1801006040) at 540 nm excitation, 590 nm emission wavelength. • 5. Data analysis was performed using XLfit 5.5.0.5.
A general note: The colour change of resazurin is a common sign of viable cells or microbes.

Assay [1] deals with EGFR (A767_dupASV) expressing Ba/F3 stable cell line (Homo sapiens, UniProt P00533, DUP767-769, cells depend on it). As to the kind of experiment: Cellular proliferation (Alamar Blue) assay, EGFR A767_dupASV Ba/F3. The conditions noted are these: read-out: A767 IC50, EGFR A767_dupASV Ba/F3, 72 hr. Here is the method: as §1, §2, §3
Assay [2] deals with EGFR(D770_N771insSVD) expressing Ba/F3 stable cell line (Homo sapiens, UniProt P00533, DUP768-770, cells depend on it). As to the kind of experiment: Cellular proliferation (Alamar Blue) assay, EGFR D770_N771insSVD Ba/F3. To be noted: read-out: D770 IC50, EGFR D770_N771insSVD Ba/F3, 72 hr. Here is the method: as §1, §2, §3
The target of the next assay is EGFR (T790M/L858R) (Homo sapiens, UniProt P00533, L858R/T790M). As to the kind of experiment: EGFR L858R/T790M enzyme inhibition assay (HTRF). The conditions noted are these: read-out: EGFR_L858R T790M_IC50_nM, 5 μM ATP, 60 min. The protocol:
Example 2: EGFR L858R & Del19/T790M Assay Protocol (to Find the IC50 for the Compounds Using HTRF Method)
Reagents for Enzyme Assay:
• 1. Enzyme Assay Buffer: 60 mM HEPES (pH 7.4), 50 mM NaCl, 20 mM MgCl2, 5 mM MnCl2, filtered using 0.2 μm pore size, stored at 4° C. • Supplements (added fresh to the enzyme buffer): 1M DTT stock was made, 5% BSA stock and 0.1M Na3OV4 stored at 4° C. Enzyme assay buffer 50 mL, 1 M DTT 100 μL, 5% BSA 500 μL, 0.1 M Na3OV4 50 μL. • 2. GST-hEGFR (L858R), active: EGFR (T790M/L858R), active (Proqinase), 3.6 μM stock; 2.5 nM in final assay. • 3. Gastrin Precusor-Biotinylated: Gastrin precursor (Tyr87) biotinylated peptide, EEAY*GWM, Cell Signaling Tech 1310, Lot-7, Want final 0.5 μM in assay. • 4. ATP: 10 mM stock in 100 μL Enzyme assay buffer pH 7.4 prepared freshly, want 5 μM in final assay. • 5. Test compounds: Powders were dissolved in 100% DMSO and made up to a final stock concentration of 10 mM (volume in μL to add for 10 mM=mg powder X 10^5/MW). Final compound concentration in the assay plate started at 10 μM.
• 1. […]
• 1. […] The reading was taken in Pherastar (ext 337 nm, Em 665 & 620 nm). • 9. The results were analyzed using Graphpad prism after calculation of the z factor, signal window and % inhibition to get the IC50.
(In general: In TR-FRET formats the signal depends on donor and acceptor labels being close together.)

The subject of assay [3] is H1975 cells (L858R_T790M mutant). Kind of assay: H1975 proliferation assay. The class given is cell-based. The conditions noted are these: read-out: Proliferation_Assay H1975 cells-EC50_nM L858R_T790M_mutant.
The target in assay [4] is HER2 (A775_G776insYVMA) expressing Ba/F3 stable cell line (Homo sapiens, UniProt P04626, DUP772-775, cells depend on it). As to the kind of experiment: Cellular proliferation (Alamar Blue) assay, HER2 YVMA Ba/F3. To be noted: read-out: YVMA IC50, HER2 A775_G776insYVMA Ba/F3, 72 hr. The protocol:
as §1, §2, §3

Structures were worked out from names or drawings and are uncertain.

`CN(C)C/C=C/C(=O)Nc1cccc(N2C(=O)N(Cc3ccccc3)Cc3cnc(Nc4cnn5ccccc45)nc32)c1`: the IC50 in the assay on A431 cells was at least 10 µM. The results for the GI50 in assay [1] and in assay [2] were 329 nM and 645 nM, respectively.

For the compound `C=CC(=O)NC1CCCC(N2C(=O)N(Cc3ccccc3)Cc3cnc(Nc4cc(C)ns4)nc32)C1` (stereo not shown), the values for the IC50 on EGFR (T790M/L858R) and in the assay on A431 cells were 28 nM and 0.15 µM, respectively. For the same compound, in assay [3], the EC50 was found to be 75.4 nM. The GI50 was 417 nM in assay [1] and 149 nM in assay [2].

As to `C=CC(=O)Nc1cccc(N2C(=O)N(Cc3ccc(F)nc3)Cc3cnc(Nc4cn(C)nc4Cl)nc32)c1`, in the assay on A431 cells, the IC50 is above 10 µM. Moreover, the results for the GI50 in assay [1], in assay [2] and in assay [4] were 347 nM, 374 nM and 452 nM, respectively.

On to `CN(C)C/C=C/C(=O)Nc1cccc(N2C(=O)N(Cc3ccccc3)Cc3cnc(Nc4cn(C)nc4F)nc32)c1`, for which the IC50 in the assay on A431 cells is at least 10 µM. Moreover, the GI50 in assay [1] worked out at 394 nM; in assay [2], 980 nM; in assay [4], 125 nM.
